The test system of this data set is E. coli. Briefly: Expression level of UBL-GFP and SUMO fusion proteins in E. coli (SDS-PAGE). The data set is classed as cell-based. The conditions noted are these: E. coli expression of UBLs; all fusions have Met N-termini.

B1: Hub1-GFP (protein)
chain: MGHHHHHHGSDSEVNQEAKPEVKPEVKPETHINLKVSDGSSEIFFKIKKTTPLRRLMEAFAKRQGKEMDSLRFLYDGIRIQADQAPEDLDMEDNDIIEAHREQIGG
In the case of B1, the “Enhancement of protein expression by fusion” value is 2 fold.

Values taken from patent US7220576B2, “Methods and compositions for protein expression and purification” (Lifesensors, Inc., priority 2002, dated 2007).
